Results on three molecules are retold here after patent US20220175942A1.

These are yes or no findings as the source states them, for the method shown. Some binding calls cover weakened binding; strength is not graded here. For some assays here: Tags and fused reporters may be left off the sequences shown.

Test [1] addresses T1, CCL19_HUMAN (human), Q99731.
T1 chain: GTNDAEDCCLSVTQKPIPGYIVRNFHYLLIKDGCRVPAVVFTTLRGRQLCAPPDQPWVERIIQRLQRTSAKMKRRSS
The experiment in a line: yeast surface display FACS re-test, >3 fold MFI over control (col D). The note with it: remark: other sources report otherwise.

The target of test [2] is T2, CCL5_HUMAN (human), P13501.
T2 chain: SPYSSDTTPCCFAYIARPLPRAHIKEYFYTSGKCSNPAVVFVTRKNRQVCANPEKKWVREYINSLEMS
Described as above. As to conditions: remark: other sources report otherwise.

Test [3] addresses T3, CX3CL1_HUMAN (human), P78423.
T3 chain: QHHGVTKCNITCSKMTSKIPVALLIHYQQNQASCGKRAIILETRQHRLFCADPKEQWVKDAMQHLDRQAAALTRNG
The test is described as above. The note with it: remark: other sources report otherwise.

Test [4] deals with T2, CCL5_HUMAN (human), P13501. The experiment in a line: yeast surface display library FACS screen, labelled chemokine (col C: isolated in). As to conditions: remark: other sources report otherwise.
In test [5] the target is T4, CCL15_HUMAN (human) (UniProt Q16663).
T4 sequence: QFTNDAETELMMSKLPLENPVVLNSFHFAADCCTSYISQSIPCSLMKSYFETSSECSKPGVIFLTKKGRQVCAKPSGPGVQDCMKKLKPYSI
The experiment in a line: yeast surface display FACS re-test, >3 fold MFI over control (col D).

Test [6] has as its target T4, CCL15_HUMAN (human). The experiment in a line: yeast surface display library FACS screen, labelled chemokine (col C: isolated in).
Test [7] addresses T5, CCL17_HUMAN (human), Q92583.
T5 chain: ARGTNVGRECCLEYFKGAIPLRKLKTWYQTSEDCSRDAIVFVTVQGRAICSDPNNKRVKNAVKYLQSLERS
The experiment in a line: yeast surface display FACS re-test, >3 fold MFI over control (col D). As to conditions: remark: other sources report otherwise.

Test [8] has as its target T6, CXCL11_HUMAN (human), O14625.
T6 chain: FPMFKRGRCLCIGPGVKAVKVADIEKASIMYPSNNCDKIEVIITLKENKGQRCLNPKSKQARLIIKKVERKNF
The description is as above. As to conditions: remark: other sources report otherwise.

B1: P546_AMBCA, A0A023FBW7 22-118 (protein)
chain: ENTQQEEEDYDYGTDTCPFPVLANKTNKAKFVGCHQKCNGGDQKLTDGTACYVVERKVWDRMTPMLWYSCPLGECKNGVCEDLRKKEECRKGNGEEK
Take B1: the binding result in test [1], in test [2], in test [3] and in test [4] was “binds” throughout.

B2: P1243_AMBAM (protein)
chain: RNHTEDNSTEYYDYEEARCACPARHLNNTNGTVLKLLGCHYFCNGTLCTAPDGYPCYNLTAQQVRTLTTYPNTSCAVGVCMKGTCVKNGTMEQCFKTP
With B2, the binding result in test [5] and in test [6] was “binds” each time.

B3: P985_AMBPA, A0A023FT45 25-132 (protein)
chain: DEESEELGASTDVDYEELDANCTCPAPALTSTRNNKHYPLGCIYNCSSYNCTIPDGTPCYVLTLGEVKEHLQIGSTVPNCTCGLCRNGTCVSNGTVEECFAVEEIEET
With B3, the binding entry in test [7] and in test [8] was “binds” throughout.
